Source: the supplement of paper PMC10849652
Some of the results follow.

Protein sequences, listed by entry. Tags and fused reporters are not part of them. Lines headed by an entry give the natural chain unless they say otherwise; changes in a name come on top.
UniProt Q9UKA9: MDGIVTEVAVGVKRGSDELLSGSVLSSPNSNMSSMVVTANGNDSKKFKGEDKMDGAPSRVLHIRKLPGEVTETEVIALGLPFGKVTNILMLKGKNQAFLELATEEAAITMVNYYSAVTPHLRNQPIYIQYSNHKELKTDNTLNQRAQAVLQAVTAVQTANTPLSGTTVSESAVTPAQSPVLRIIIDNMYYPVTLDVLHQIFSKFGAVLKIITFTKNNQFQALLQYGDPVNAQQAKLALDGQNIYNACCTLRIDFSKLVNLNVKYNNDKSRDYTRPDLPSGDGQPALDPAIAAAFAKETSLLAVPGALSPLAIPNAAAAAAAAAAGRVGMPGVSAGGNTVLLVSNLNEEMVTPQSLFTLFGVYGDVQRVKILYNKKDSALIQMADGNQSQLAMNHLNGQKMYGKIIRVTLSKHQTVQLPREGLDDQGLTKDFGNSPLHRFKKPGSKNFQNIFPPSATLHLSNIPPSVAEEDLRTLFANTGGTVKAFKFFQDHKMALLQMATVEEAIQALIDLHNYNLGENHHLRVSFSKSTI
UniProt Q9UNM6: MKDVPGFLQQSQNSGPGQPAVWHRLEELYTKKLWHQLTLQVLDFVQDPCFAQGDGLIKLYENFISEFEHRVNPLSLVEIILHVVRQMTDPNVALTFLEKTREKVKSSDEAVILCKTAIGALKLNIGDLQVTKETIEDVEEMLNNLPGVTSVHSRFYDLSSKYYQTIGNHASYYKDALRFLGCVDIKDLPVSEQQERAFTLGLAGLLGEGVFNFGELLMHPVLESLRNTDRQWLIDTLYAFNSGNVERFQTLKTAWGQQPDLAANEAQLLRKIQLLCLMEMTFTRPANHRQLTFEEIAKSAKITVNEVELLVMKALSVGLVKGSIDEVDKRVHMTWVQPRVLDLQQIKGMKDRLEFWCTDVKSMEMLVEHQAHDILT
UniProt O95997: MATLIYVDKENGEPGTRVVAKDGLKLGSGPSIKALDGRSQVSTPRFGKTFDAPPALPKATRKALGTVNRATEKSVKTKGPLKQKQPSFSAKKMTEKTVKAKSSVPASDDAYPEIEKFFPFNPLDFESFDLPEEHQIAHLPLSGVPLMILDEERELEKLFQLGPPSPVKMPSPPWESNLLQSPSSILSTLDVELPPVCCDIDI
UniProt P79522: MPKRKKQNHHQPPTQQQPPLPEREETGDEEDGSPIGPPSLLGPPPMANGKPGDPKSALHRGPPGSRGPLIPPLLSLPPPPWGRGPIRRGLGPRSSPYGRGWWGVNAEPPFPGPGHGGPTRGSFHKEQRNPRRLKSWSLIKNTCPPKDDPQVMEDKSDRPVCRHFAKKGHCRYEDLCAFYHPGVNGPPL
UniProt O75365, whole entry, looked up: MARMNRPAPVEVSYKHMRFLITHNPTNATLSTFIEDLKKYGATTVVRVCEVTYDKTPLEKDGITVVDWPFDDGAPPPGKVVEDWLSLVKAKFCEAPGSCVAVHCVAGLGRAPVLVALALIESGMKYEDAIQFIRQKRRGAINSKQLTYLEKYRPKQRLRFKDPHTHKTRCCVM
UniProt Q9BRX8: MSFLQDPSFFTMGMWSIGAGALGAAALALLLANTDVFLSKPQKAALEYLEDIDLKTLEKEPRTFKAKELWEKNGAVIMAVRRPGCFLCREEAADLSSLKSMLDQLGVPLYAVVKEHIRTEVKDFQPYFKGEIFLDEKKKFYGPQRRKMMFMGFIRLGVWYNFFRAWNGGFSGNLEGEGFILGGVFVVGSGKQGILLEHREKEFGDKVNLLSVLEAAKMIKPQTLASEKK
UniProt P28062: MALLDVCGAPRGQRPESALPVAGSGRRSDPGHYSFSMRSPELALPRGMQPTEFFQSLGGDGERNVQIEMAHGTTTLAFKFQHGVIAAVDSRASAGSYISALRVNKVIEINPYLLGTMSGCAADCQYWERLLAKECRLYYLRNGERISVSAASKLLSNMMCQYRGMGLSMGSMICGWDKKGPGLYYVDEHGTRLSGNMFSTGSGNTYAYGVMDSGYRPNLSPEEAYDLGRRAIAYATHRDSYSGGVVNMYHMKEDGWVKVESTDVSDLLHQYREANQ
UniProt Q15185: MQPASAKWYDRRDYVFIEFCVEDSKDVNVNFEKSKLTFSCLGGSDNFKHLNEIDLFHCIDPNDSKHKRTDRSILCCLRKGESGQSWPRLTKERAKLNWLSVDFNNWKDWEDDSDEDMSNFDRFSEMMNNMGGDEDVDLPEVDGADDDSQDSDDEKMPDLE
UniProt Q86YD1: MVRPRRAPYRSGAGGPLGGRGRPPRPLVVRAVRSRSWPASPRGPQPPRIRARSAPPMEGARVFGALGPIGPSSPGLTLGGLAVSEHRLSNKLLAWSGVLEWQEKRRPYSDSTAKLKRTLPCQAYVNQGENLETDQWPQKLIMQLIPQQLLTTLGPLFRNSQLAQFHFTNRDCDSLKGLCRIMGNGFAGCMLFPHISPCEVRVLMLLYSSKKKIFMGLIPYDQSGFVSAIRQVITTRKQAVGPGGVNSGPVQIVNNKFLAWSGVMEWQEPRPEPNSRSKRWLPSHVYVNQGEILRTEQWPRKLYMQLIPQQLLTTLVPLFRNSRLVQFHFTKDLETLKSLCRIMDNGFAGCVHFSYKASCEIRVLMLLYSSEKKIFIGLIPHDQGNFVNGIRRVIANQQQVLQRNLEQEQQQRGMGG
UniProt Q9ULL5: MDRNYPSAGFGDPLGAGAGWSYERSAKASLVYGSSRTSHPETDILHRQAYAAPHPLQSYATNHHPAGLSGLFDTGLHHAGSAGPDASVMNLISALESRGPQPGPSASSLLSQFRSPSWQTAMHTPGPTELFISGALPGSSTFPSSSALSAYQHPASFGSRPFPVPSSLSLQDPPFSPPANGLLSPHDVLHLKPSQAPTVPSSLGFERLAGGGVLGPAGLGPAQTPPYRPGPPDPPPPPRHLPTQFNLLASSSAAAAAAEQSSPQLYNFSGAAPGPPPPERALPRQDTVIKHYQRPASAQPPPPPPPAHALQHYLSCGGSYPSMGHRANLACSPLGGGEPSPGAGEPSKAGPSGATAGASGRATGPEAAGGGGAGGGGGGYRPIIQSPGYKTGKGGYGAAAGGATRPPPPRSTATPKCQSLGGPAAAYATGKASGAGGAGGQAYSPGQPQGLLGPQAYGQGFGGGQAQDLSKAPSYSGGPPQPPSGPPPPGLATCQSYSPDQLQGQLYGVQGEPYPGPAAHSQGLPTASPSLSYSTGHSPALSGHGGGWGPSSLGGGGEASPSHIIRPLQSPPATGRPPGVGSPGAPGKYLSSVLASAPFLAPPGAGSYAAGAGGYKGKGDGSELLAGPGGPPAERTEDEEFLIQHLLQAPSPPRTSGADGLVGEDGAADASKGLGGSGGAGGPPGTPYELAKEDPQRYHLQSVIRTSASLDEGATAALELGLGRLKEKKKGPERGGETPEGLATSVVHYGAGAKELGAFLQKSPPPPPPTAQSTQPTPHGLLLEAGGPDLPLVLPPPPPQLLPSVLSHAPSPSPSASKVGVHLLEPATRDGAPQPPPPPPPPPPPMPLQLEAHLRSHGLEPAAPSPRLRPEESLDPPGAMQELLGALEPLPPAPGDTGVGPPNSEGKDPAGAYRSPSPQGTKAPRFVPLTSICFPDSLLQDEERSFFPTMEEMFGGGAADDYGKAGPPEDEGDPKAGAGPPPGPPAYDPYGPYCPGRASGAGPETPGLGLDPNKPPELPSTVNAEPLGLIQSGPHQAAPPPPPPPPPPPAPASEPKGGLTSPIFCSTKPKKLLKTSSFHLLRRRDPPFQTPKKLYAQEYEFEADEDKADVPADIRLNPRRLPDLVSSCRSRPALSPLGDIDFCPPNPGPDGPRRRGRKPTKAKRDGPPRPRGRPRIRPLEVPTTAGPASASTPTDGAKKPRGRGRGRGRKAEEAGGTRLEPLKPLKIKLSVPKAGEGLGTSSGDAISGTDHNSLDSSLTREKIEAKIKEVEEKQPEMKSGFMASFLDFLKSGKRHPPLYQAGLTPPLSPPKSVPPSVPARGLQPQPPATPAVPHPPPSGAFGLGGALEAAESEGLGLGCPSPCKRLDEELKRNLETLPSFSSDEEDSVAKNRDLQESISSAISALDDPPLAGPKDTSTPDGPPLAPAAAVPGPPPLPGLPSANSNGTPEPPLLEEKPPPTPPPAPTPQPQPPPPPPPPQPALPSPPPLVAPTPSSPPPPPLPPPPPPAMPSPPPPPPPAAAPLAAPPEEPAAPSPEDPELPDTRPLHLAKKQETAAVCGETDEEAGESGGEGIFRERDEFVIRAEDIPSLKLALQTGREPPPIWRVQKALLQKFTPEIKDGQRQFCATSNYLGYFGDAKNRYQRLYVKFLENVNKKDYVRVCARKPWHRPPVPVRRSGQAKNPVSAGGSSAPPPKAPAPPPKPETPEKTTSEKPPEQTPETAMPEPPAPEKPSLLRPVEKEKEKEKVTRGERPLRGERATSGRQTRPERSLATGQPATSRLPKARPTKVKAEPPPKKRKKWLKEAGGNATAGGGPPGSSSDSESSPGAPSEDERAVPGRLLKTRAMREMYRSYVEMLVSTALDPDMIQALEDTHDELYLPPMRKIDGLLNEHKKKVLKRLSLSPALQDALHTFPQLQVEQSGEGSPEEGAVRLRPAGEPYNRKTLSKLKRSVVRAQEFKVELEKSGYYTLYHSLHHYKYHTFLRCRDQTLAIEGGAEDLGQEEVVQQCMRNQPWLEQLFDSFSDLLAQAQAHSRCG
UniProt P60484: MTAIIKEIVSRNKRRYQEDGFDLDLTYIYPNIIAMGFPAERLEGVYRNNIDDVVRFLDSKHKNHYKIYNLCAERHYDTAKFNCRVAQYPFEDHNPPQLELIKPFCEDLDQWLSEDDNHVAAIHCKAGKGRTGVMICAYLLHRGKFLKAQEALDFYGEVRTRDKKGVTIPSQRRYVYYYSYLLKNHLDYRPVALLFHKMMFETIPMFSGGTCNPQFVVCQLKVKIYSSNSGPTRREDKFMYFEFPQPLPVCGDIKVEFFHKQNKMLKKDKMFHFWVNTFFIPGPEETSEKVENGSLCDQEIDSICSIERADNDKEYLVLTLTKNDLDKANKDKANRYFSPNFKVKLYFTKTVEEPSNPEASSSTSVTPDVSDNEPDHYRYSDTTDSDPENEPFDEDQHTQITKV
UniProt Q15008: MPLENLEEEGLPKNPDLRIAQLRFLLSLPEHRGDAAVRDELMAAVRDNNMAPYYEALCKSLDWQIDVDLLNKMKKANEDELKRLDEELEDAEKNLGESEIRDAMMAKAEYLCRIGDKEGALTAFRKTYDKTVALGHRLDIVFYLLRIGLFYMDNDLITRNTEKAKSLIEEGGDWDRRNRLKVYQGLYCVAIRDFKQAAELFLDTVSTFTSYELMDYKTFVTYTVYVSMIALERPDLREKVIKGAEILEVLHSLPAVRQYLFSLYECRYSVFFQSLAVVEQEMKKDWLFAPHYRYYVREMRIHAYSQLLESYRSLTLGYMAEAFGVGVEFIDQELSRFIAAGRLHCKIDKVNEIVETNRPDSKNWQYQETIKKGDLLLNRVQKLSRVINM
UniProt P07602: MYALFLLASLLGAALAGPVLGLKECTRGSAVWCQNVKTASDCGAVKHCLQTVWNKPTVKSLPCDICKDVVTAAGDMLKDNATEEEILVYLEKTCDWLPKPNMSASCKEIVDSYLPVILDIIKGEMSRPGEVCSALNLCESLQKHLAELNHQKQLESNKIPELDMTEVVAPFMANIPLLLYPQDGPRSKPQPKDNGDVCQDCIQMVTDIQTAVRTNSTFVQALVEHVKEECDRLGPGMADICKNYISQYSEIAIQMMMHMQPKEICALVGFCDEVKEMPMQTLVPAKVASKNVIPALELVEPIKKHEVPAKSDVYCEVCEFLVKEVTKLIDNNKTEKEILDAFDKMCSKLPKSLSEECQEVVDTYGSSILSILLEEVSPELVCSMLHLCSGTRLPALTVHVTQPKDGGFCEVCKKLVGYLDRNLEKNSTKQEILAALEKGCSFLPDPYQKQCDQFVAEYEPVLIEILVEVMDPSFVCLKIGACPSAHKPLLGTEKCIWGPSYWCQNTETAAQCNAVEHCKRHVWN
UniProt Q9UI38: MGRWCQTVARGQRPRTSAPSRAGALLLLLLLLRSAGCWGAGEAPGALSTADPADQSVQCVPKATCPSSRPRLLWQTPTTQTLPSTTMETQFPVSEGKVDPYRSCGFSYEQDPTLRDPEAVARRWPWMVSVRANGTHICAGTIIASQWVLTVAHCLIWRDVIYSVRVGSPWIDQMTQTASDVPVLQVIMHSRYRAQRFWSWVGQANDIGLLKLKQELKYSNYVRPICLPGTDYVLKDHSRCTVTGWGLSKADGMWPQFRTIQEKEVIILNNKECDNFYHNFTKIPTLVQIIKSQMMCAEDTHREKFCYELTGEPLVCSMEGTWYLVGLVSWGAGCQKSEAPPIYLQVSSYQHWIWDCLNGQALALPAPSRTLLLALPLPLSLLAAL
UniProt P06454: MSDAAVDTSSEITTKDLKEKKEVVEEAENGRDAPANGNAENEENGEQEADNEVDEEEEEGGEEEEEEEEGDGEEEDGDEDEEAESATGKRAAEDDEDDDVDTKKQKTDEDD

Legend:
Experiment in all cases: log2 fold change, soluble protein after heating vs DMSO (PISA); higher = thermal stabilisation; K562 lysate, 10 uM; active = over 0.2 and 3.5 SD of the protein, either way, in both replicates (recomputed)
erlotinib = compound: C#Cc1cccc(Nc2ncnc3cc(OCCOC)c(OCCOC)cc23)c1 [erlotinib]
Procedure, shortened: (§1)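 A 30 min treatment with 10 μM compound was applied to crude K562 extract at 1 mg/mL protein in PBS pH 7.4 with 1 mM MgCl2. Heating for 3 min spanned 48°C-58°C, after which aliquots were pooled, adjusted to 0.5% NP-40 at 4°C and spun at 21,000xg for 90 min. TMTpro 16plex LC-MS/MS of the supernatant, with channel sums equalised, gave values recorded as log-two fold change in thermal stability against solvent controls, from duplicates.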

[1] = compound: C/C(=N\NC(=O)C1=CC(=CC=C1)S(=O)(=O)N2CCOCC2)/C3=C(C=CC(=C3)Cl)O
Procedure, shortened: as §1

[2] = compound: C1=CC(=CC=C1C2=NC3=C(N2)C=C(C=C3)C(=O)N)OC4=CC=C(C=C4)Cl
Procedure, shortened: as §1

[3] = compound: C1=CC2=C(C=CC(=C2)/C=C\3/C(=O)NC(=NCC4=CC=CS4)S3)N=C1
Procedure, shortened: as §1

[4] = compound: C1=CC2=NC=CN=C2C=C1/C=C/3\C(=O)NC(=O)S3
Procedure, shortened: as §1

[5] = compound: C1=CC=C2C(=C1)C3=NNC4=CC=CC(=C43)C2=O
Procedure, shortened: as §1

[6] = compound: C1CCN(C1)C(=O)NC2=CC=CC(=C2)NC3=NC=C(C(=N3)NCCC4=CN=CN4)Br
Procedure, shortened: as §1

[7] = compound: C1CN(CCC1(CC2=CC=C(C=C2)Cl)N)C3=NC=NC4=C3C=CN4
Procedure, shortened: as §1

[8] = compound: C1=CC=C(C=C1)C2=NC(=C(N2)C3=CC=NC=C3)C4=CC(=C(C=C4)Cl)O
Procedure, shortened: as §1

IRAK-1-4 Inhibitor I = compound: C1COCCN1CCN2C3=CC=CC=C3N=C2NC(=O)C4=CC(=CC=C4)[N+](=O)[O-] [IRAK-1-4 Inhibitor I]
Procedure, shortened: as §1

Measured: log2 fold change

PSMB2, A0A087WVV1
inactive: erlotinib 0.036 | [1] 0.467 | [2] -0.03 | [3] -0.1 | [4] 0.006 | [5] -0.136 | [6] -0.019 | [7] 0.125

PTBP2 isoform 2 (UniProt Q9UKA9)
inactive: erlotinib 0.032 | [1] 0.188 | [2] 0.094 | [3] -0.037 | [4] -0.145 | [8] -0.004 | [5] 0.018 | [6] -0.193 | [7] 0.151 | IRAK-1-4 Inhibitor I 0.016

PSMD4 (UniProt Q5VWC4)
inactive: erlotinib -0.07 | [1] -0.105 | [2] -0.179 | [3] 0.098 | [4] -0.024 | [8] -0.019 | [5] 0.031 | IRAK-1-4 Inhibitor I -0.005

PSMD13 (UniProt Q9UNM6)
inactive: erlotinib -0.012 | [1] 0.002 | [2] -0.026 | [3] -0.003 | [4] -0.044 | [8] -0.007 | [5] 0.008 | [6] 0.013 | [7] -0.019 | IRAK-1-4 Inhibitor I -0.005

PSMA2 (UniProt P25787)
inactive: erlotinib 0.007 | [1] 0.023 | [2] 0.012 | [3] 0.003 | [4] 0.004 | [8] 0.003 | [5] 0.025 | [6] 0.039 | [7] 0.008 | IRAK-1-4 Inhibitor I 0.017

PSMB6 (UniProt P28072)
inactive: erlotinib -0.017 | [1] -0.012 | [2] 0.033 | [3] -0.028 | [4] -0.025 | [8] 0.006 | [5] -0.018 | [6] -0.002 | [7] 0.014 | IRAK-1-4 Inhibitor I 0.008

PRPSAP2 (UniProt O60256)
inactive: erlotinib 0.008 | [1] 0.003 | [2] 0.002 | [3] -0.023 | [4] 0.003 | [8] 0.013 | [5] 0.007 | [6] -0.02 | [7] 0.01 | IRAK-1-4 Inhibitor I 0.02

PRR14L (UniProt Q5THK1)
inactive: erlotinib 0.112 | [1] -0.175 | [2] -0.044 | [3] 0.013 | [4] 0.003 | [8] -0.031 | [5] 0.015 | [6] 0.078 | [7] -0.025 | IRAK-1-4 Inhibitor I 0.075

PTDSS1 (UniProt P48651)
inactive: erlotinib -0.046 | [1] -0.031 | [2] -0.295 | [3] -0.111 | [4] -0.033 | [8] -0.117 | [5] -0.107 | [6] 0.036 | [7] 0.079 | IRAK-1-4 Inhibitor I 0.024

PUS10 (UniProt Q3MIT2)
inactive: erlotinib -0.014 | [1] 0.068 | [2] -0.002 | [3] 0.011 | [4] -0.006 | [8] 0.043 | [5] -0.102 | [6] -0.007 | [7] -0.008 | IRAK-1-4 Inhibitor I 0.003

PTTG1 (UniProt O95997)
inactive: erlotinib -0.036 | [1] -0.12 | [2] -0.162 | [3] -0.006 | [4] -0.113 | [8] 0.071 | [5] -0.022 | [6] 0.005 | [7] 0.044 | IRAK-1-4 Inhibitor I -0.02

PRR3 (UniProt P79522)
inactive: [1] 0.115 | [3] -0.004 | [5] -0.088

8 neighbouring records out of the list so far, for reference:
PSMB2, A0A087WVV1
inactive: erlotinib 0.036 | [1] 0.467 | [2] -0.03 | [3] -0.1 | [4] 0.006 | [5] -0.136 | [6] -0.019 | [7] 0.125

PTBP2 isoform 2 (UniProt Q9UKA9)
inactive: erlotinib 0.032 | [1] 0.188 | [2] 0.094 | [3] -0.037 | [4] -0.145 | [8] -0.004 | [5] 0.018 | [6] -0.193 | [7] 0.151 | IRAK-1-4 Inhibitor I 0.016

PSMD4 (UniProt Q5VWC4)
inactive: erlotinib -0.07 | [1] -0.105 | [2] -0.179 | [3] 0.098 | [4] -0.024 | [8] -0.019 | [5] 0.031 | IRAK-1-4 Inhibitor I -0.005

PSMD13 (UniProt Q9UNM6)
inactive: erlotinib -0.012 | [1] 0.002 | [2] -0.026 | [3] -0.003 | [4] -0.044 | [8] -0.007 | [5] 0.008 | [6] 0.013 | [7] -0.019 | IRAK-1-4 Inhibitor I -0.005

PSMA2 (UniProt P25787)
inactive: erlotinib 0.007 | [1] 0.023 | [2] 0.012 | [3] 0.003 | [4] 0.004 | [8] 0.003 | [5] 0.025 | [6] 0.039 | [7] 0.008 | IRAK-1-4 Inhibitor I 0.017

PSMB6 (UniProt P28072)
inactive: erlotinib -0.017 | [1] -0.012 | [2] 0.033 | [3] -0.028 | [4] -0.025 | [8] 0.006 | [5] -0.018 | [6] -0.002 | [7] 0.014 | IRAK-1-4 Inhibitor I 0.008

PRPSAP2 (UniProt O60256)
inactive: erlotinib 0.008 | [1] 0.003 | [2] 0.002 | [3] -0.023 | [4] 0.003 | [8] 0.013 | [5] 0.007 | [6] -0.02 | [7] 0.01 | IRAK-1-4 Inhibitor I 0.02

PRR14L (UniProt Q5THK1)
inactive: erlotinib 0.112 | [1] -0.175 | [2] -0.044 | [3] 0.013 | [4] 0.003 | [8] -0.031 | [5] 0.015 | [6] 0.078 | [7] -0.025 | IRAK-1-4 Inhibitor I 0.075

More entries.

PSMF1 (UniProt Q5QPM7)
inactive: [1] 0.067 | [3] 0.026 | [5] -0.278 | [6] 0.046 | [7] 0.026

PTP4A3 (UniProt O75365)
inactive: erlotinib -0.014 | [1] 0.069 | [2] -0.165 | [3] 0.008 | [5] 0.116 | [6] -0.074 | [7] 0.172

PRXL2A (UniProt Q9BRX8)
inactive: erlotinib 0.05 | [2] 0.077 | [4] 0.087 | [8] -0.033 | IRAK-1-4 Inhibitor I 0.145

PSMB8 (UniProt P28062)
inactive: erlotinib 0.05 | [2] 0.036 | [4] 0.037 | [8] -0.028 | [6] -0.016 | [7] 0.04 | IRAK-1-4 Inhibitor I -0.042

PTPRF (UniProt P10586)
inactive: [1] -0.4 | [3] -0.069 | [5] 0.064

PTGES3 isoform 4 (UniProt Q15185)
inactive: [4] 0.113 | [8] -0.128 | IRAK-1-4 Inhibitor I -0.113

PTPA (UniProt A6PVN8)
inactive: [6] -0.161 | [7] -0.016

PSMA7 isoform 2 (UniProt O14818)
inactive: [6] -0.04 | [7] -0.068

PTOV1 (UniProt Q86YD1)
inactive: [1] 0.479 | [3] -0.083 | [5] -0.139

PTCD2 (UniProt Q8WV60)
inactive: erlotinib 0.149 | [1] -0.316 | [2] -0.055 | [3] 0.184 | [8] -0.065 | [5] -0.032 | [6] 0.124 | [7] 0.044 | IRAK-1-4 Inhibitor I 0.052

PSMA7 (UniProt H0Y586)
inactive: erlotinib -0.289 | [2] 0.048 | [4] 0.102

PSEN2 (UniProt P49810)
inactive: [4] 0.014 | [8] 0.061 | [6] -0.049 | [7] 0.058 | IRAK-1-4 Inhibitor I -0.026

PRR12 (UniProt Q9ULL5)
inactive: [4] -0.053 | [8] 0.134 | IRAK-1-4 Inhibitor I 0.203

PSMD1, A0A087WW66
inactive: [4] -0.158

PRSS8 (UniProt Q16651)
inactive: erlotinib -0.013 | [2] -0.021 | [8] -0.057 | IRAK-1-4 Inhibitor I 0.131

PTPN14 (UniProt Q15678)
inactive: [6] 0.089 | [7] 0.223

PTEN isoform 2 (UniProt P60484)
inactive: erlotinib 0.011 | [2] 0.01 | [4] -0.03 | [8] -0.026 | [6] -0.111 | [7] 0.102 | IRAK-1-4 Inhibitor I 0.041

PTPA (UniProt Q5T948)
inactive: [1] -0.023 | [3] -0.008 | [8] 0.063 | [5] 0.016 | IRAK-1-4 Inhibitor I -0.014

PSMB10 (UniProt P40306)
inactive: [1] 0.007 | [3] -0.013 | [4] -0.058 | [8] 0.012 | [5] 0.08 | [6] -0.032 | [7] -0.008 | IRAK-1-4 Inhibitor I 0.004

PTPRB isoform 3 (UniProt P23467)
inactive: [4] -0.106

PSIP1 (UniProt V9GYT7)
inactive: erlotinib -0.044 | [2] 0.103 | [4] -0.044 | [8] 0.002 | IRAK-1-4 Inhibitor I 0.061

PTK2 isoform 2 (UniProt Q05397)
inactive: erlotinib 0.002 | [2] 0.006 | [4] -0.114 | [6] 0.193 | [7] -0.016

PTRH1 (UniProt Q86Y79)
inactive: erlotinib -0.133 | [1] 0.13 | [2] -0.317 | [3] 0.225 | [8] -0.025 | [5] 0.045 | [6] 0.345 | [7] -0.141 | IRAK-1-4 Inhibitor I 0.054

PSMD6 (UniProt Q15008)
inactive: [4] 0.215

PSMC3 (UniProt E9PLG2)
inactive: [1] -0.043 | [3] 0.001 | [5] 0.091

PRRC2B (UniProt H0Y412)
inactive: erlotinib 0.006 | [2] 0.256 | [8] -0.227 | IRAK-1-4 Inhibitor I 0.003

PSAP isoform 2 (UniProt P07602)
inactive: erlotinib -0.04 | [2] -0.217

PRSS50 (UniProt Q9UI38)
inactive: [4] 0.023 | [6] 0.059 | [7] -0.037

PTMA isoform 2 (UniProt P06454)
inactive: [4] 0.015

PTMS (UniProt F5GXR3)
inactive: [1] -0.137 | [3] -0.096 | [5] 0

PSMA3 (UniProt H0YJ03)
inactive: erlotinib 0.012 | [1] -0.067 | [2] -0.038 | [3] 0.069 | [8] -0.006 | [5] 0.111 | [6] -0.075 | [7] 0.067 | IRAK-1-4 Inhibitor I 0.09

PRRG1 (UniProt O14668)
inactive: [8] -0.006 | IRAK-1-4 Inhibitor I 0.06
